Experimental data: patent WO2021175954A1 (dated 2021)
Positions count from the first letter of the chain named. No constants are given. Whether binding was seen depends on the method and setting. Some binding calls cover weakened binding; strength is not graded here.

T1: recombinant human BTNL8 protein (BLI) (human, UniProt Q6UX41 18-238, limits assumed)
T1 construct: it may be the same rhBTNL8-Fc as in the Luminex assay; also called hBTNL8; recombinant BTNL8 protein
T1 sequence: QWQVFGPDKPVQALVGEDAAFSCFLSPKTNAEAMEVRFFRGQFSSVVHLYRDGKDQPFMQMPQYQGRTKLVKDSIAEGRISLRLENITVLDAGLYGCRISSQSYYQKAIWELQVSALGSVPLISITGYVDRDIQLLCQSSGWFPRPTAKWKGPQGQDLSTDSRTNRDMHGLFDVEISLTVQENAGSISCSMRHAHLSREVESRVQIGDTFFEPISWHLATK

B1: chimeric anti-BTNL8 mAb mAbX1 (antibody, V domains shown)
VH: QVQLQQSGAELARPGASVKLSCKASGYIFTSYGIGWVKQRTGQGLEWIGEVYPRNGHSYYNEKFKGKATLTADRSSSTAYMQLSSLTSEDSAVYFCARGGTGSQLDYWGQGTTLTVSS
VL: DIQMTQSPASLSASVGETVTITCRASENIYSYLAWYQQKQGKSPHLLVYNAKTLAEGVPSRFSGSGSGTQFSLRISSLQPEDFGNYYCQHHYGTYTFGGGTKLEIK
notes: also called mAbXl
B2: chimeric anti-BTNL8 mAb mAbX2 (antibody, V domains shown)
VH: EVQLQQSGAEFVRPGASVKMSCTGSGLNIEDDYMHWVKQRPEQGLEWIGRIDPANGNTKYGPKFQDKATITADTSSNTAYLQLSSLTAEDTAVYYCTRNYYDGSLYYFDYWGQGTTLTVSS
VL: QIVLTQSPAIMSASLGEEITLTCSASSSVSYMHWYQQKSGTSPKLLIYSTSNLASGVPSRFSGSGSGTFYSLTISSVEAEDAADYYCHQWSRYPYTFGGGTKLEIK
B3: chimeric anti-BTNL8 mAb mAbX4 (antibody, V domains shown)
VH: EVQLQQSGAELVRPGASVKLSCTASGFNIKDDYMHWVKQRPEQALEWIGRIDPANGNTKYVPKFQDKATITADTSSNTASLQLSSLTSEDTAVYYCARWGIYDGYYYTMDSWGQGTSVTVSS
VL: QNVLIQSPAIMSASPGEKVTITCSASSSVSYMHWFQQKPGTSPKLWIYSTSNLASGVPARFSGSGSGTSYSLTISRMEAADAATYFCQQRSRYPYTFGGGTKLEIK
B4: chimeric anti-BTNL8 mAb mAbX5 (antibody, V domains shown)
VH: EVQLQQSGAELVRPGASIKLSCTASGFNIEDDYMHWVRQRPVQGLEWIGRIDPANGNANFAPKFQDKATITADTSSNTAYLQLSSLASEDTAVYYCTREGGLYYGNSDAMDYWGQGTSVTVSS
VL: B3 VL with N2I, I5T, S26R, H33Q, F35I, A59D, A80E, F86Y, Y95R
B5: reference murine antibody mAb X1 (antibody, V domains shown)
VH: B1 VH
VL: B1 VL
notes: Murine monoclonal antibody, tested as hybridoma supernatant or purified from it
B6: reference murine antibody mAb X2 (antibody, V domains shown)
VH: B2 VH
VL: B2 VL
notes: as for B5
B7: reference murine antibody mAb X4 (antibody, V domains shown)
VH: B3 VH
VL: B3 VL
notes: as for B5
B8: reference murine antibody mAb X5 (antibody, V domains shown)
VH: B4 VH
VL: B3 VL with N2I, I5T, S26R, H33Q, F35I, A59D, A80E, F86Y, Y95R
notes: as for B5

These binders were tested against T1, recombinant human BTNL8 protein (BLI) (assay: BLI epitope binning, classical sandwich, recombinant human BTNL8 at 40 nM).

binding	Binder
binds	B1

The binders below were run against recombinant cynoBTNL8-Fc fusion protein (cynomolgus (Macaca fascicularis); human) (assay: binding to recombinant cynoBTNL8-Fc (data not shown; method not named)).

binding	Binder
binds	B1
binds	B2
binds	B3
binds	B4

What follows are binders tested against T1, recombinant human BTNL8 protein (BLI) (assay: BLI (OctetRed96), recombinant human BTNL8).

binding	Binder
binds	B1
binds	B2
binds	B3
binds	B4

These binders were tested against recombinant cynoBTNL8-Fc fusion protein (cynomolgus (Macaca fascicularis); human) (assay: ELISA, hybridoma supernatant on coated cynoBTNL8-Fc).

binding	Binder
binds	B5
binds	B6
binds	B7
binds	B8
